{"source": "PubChem BioAssay AID1347423", "about": "(Functional Genomics Laboratory (NCATS/FGL), 2020)", "note": "The whole screen tested about 52,000 sequences, of which about 210 (0.4%) were called active.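 Rule for the calls: active = gene whose silencing raises cell survival under the drug, median off-target-corrected z-score across its silencing RNAs 2 or more; inactive = the rest.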 This is one part of the list."}
{"test": "Resistance to Poly (ADP-Ribose) Polymerase inhibitor: Gene Identification via Genome-wide siRNA Screen", "settings": "mouse BRCA2 R2336H ES cells, olaparib, CellTiter-Glo viability; stronger effect = higher value", "outline": "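Mouse BRCA2 R2336H ES cells were reverse-transfected with siRNA (20 nM final), treated at 48 h with 500 nM olaparib, and read by CellTiter-Glo after 72 h. Scores: MAD-based z per siRNA, median per gene, seed off-target correction.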"}
{"sequence": "CGCUUUAUUAGAUGGGCUATT against Dlx5", "z-score": "inactive: 1.47"}
{"sequence": "GCUUGCUUAUGGCCUAUUATT against 1110017I16Rik", "z-score": "inactive: -1.27"}
{"sequence": "GGAAAUUCUCUACUACUGATT against Unc5d", "z-score": "inactive: 1.01"}
{"sequence": "GGAACAUUUUGGAAAAGACTT against 1300017J02Rik", "z-score": "inactive: -0.786"}
{"sequence": "GCCAGACACUUAAUCCCGUTT against Unc13d", "z-score": "inactive: -0.0528"}
{"sequence": "GGAAAUGAAAUAGUCUCGUTT against Dpm1", "z-score": "inactive: 1.05"}
{"sequence": "GGAAAAGAACCAAAGAAUGTT against 5330439B14Rik", "z-score": "inactive: 0.319"}
{"sequence": "CCGAAUUUCUCCUAUUGGGTT against Olfr106", "z-score": "inactive: -0.409"}
{"sequence": "GGGCUACACUUGCUGUACUTT against Gpc1", "z-score": "inactive: -2.24"}
{"sequence": "GGUGUUACCAAGAGUGACUTT against 2410019G02Rik", "z-score": "inactive: -0.588"}
{"sequence": "GGUGAUAGAGUAGAAGAUGTT against Hdgfrp3", "z-score": "inactive: -0.917"}
{"sequence": "GGUUGUAUCAGUGAAGACATT against 3110062M04Rik", "z-score": "inactive: 2"}
{"sequence": "GCCCGGUAAAGGUAUCCAUTT against Trp53bp1", "z-score": "active: 1.78"}
{"sequence": "GGACAUGCUUUUAUAGAUGTT against Hist3h2a", "z-score": "inactive: 0.761"}
{"sequence": "GGAUGAAGUUCUUUUUCAATT against Pdcd11", "z-score": "inactive: -0.445"}
{"sequence": "GGUGCACUGAAGAACUCCATT against Olfr1494", "z-score": "inactive: -1.03"}
{"sequence": "GGUUCCAAUUGGAUAUUUGTT against Cysltr2", "z-score": "inactive: 0.466"}
{"sequence": "CUCUCCAGACUCCUAUGUATT against Olfr1118", "z-score": "inactive: 1"}
{"sequence": "GGUUGGUCUCCAAAGAUGGTT against Kcnj1", "z-score": "inactive: -0.292"}
{"sequence": "GGUUCAACGCAAAGUUCGCTT against Aldh4a1", "z-score": "inactive: 0.02"}
{"sequence": "GGCACUUACACGUUUGGAATT against Cry1", "z-score": "inactive: 1.4"}
{"sequence": "GGAACAACUUCGUACCAUGTT against BC050789", "z-score": "inactive: -0.393"}
{"sequence": "GCGGAGAAACAGGACAACATT against Prrx1", "z-score": "inactive: 1.68"}
{"sequence": "GCUAUAUAAUGCUUAUGUGTT against Tpr", "z-score": "inactive: 0.411"}
{"sequence": "GGAAGUUUUAUAGACAAACTT against 2810002I04Rik", "z-score": "inactive: 0.653"}
{"sequence": "GGAUGGGAUGAAAAUUGAATT against Papolg", "z-score": "inactive: -0.794"}
{"sequence": "CCGAGGUUUCAUAUUUCGGTT against Leng9", "z-score": "inactive: 1.05"}
{"sequence": "CGUCCAGUAUACGCUGGUUTT against Cdc45l", "z-score": "inactive: -0.103"}
{"sequence": "GGCCUUCGUCAUCUUCAAGTT against Snrpa", "z-score": "inactive: -0.553"}
{"sequence": "GGCUGAAGUUAACAGUAAGTT against 2210415K24Rik", "z-score": "inactive: -0.85"}
{"sequence": "GGGUCAACAUCAUCUAUGGTT against Olfr616", "z-score": "inactive: -1.61"}
{"sequence": "GGCCCUGCAUUAUCCGAAATT against Pla2g4b", "z-score": "inactive: 0.888"}
{"sequence": "GGUCAUUGCUAUUCCGUACTT against Olfr536", "z-score": "inactive: -0.0849"}
{"sequence": "GGCAUGAAGCAGGAAGACATT against 2810460C24Rik", "z-score": "inactive: 0.515"}
{"sequence": "GCAUCAAUAUCAUUAUUCCTT against Olfr917", "z-score": "inactive: -0.264"}
{"sequence": "GGCUACAUUAGUGCCUGGUTT against Trp53rk", "z-score": "inactive: -0.226"}
{"sequence": "CCAAGUACUUGAGAGAGACTT against Creb3l1", "z-score": "inactive: 0.45"}
{"sequence": "GGUUGCCAUAGCUUCUCGGTT against Abcg1", "z-score": "inactive: 0.208"}
{"sequence": "GGCGAGGUACUUCCUACCUTT against Nipa1", "z-score": "inactive: -0.188"}
{"sequence": "GGGUUGAUUGACGAAGCCATT against Fga", "z-score": "inactive: 0.655"}
{"sequence": "CGGCACCUAUGAGUCUUACTT against Cyp4x1", "z-score": "inactive: -2.58"}
{"sequence": "CCUUCAUGAGUCCUCUUCATT against Gaa", "z-score": "inactive: 0.762"}
{"sequence": "CGAAUGCUUAUUUAGGUUGTT against Kpna4", "z-score": "inactive: 1.67"}
{"sequence": "CCUUGUGUCACUACCCACATT against Nr5a1", "z-score": "inactive: -0.189"}
{"sequence": "GGGUUCAAAACUAUGGAUATT against 2610018G03Rik", "z-score": "inactive: -0.033"}
{"sequence": "GGGAAUGGCACCAUUUUCUTT against Pbp2", "z-score": "inactive: -1.26"}
{"sequence": "GGGCCAUGAUAGGACACACTT against Nme4", "z-score": "inactive: -0.351"}
{"sequence": "GGCAUGGAAUGAGCUUUUCTT against Nr2e3", "z-score": "inactive: 1.1"}
{"sequence": "GGAGCAUCGAUCUUGAUUCTT against D430044G18Rik", "z-score": "inactive: 1.09"}
{"sequence": "GCCGUAUUUUGCUUGUUUCTT against Gpr35", "z-score": "inactive: -0.846"}
{"sequence": "GCGUGGUGUAUUUGAAUCATT against Ch25h", "z-score": "inactive: 0.79"}
{"sequence": "GCCAGUGAUUAGUGUUUAUTT against D8Ertd531e", "z-score": "inactive: -0.933"}
{"sequence": "GGUAGUGAAAAUGAAGAGUTT against Gtf2h1", "z-score": "inactive: 1.12"}
{"sequence": "CGUAAGUUAUGUGUCUAAGTT against 1810008A18Rik", "z-score": "inactive: -0.452"}
{"sequence": "CCCUCUACACUAUACCACATT against Olfr347", "z-score": "inactive: -0.929"}
{"sequence": "CGAGAAGGGAUUUUAGAAGTT against A830018L16Rik", "z-score": "inactive: 0.274"}
{"sequence": "GGAAGAUUACCAACUUUGATT against E130307J04Rik", "z-score": "inactive: -1.2"}
{"sequence": "AGGGCACAAAAGGUGACAATT against Rph3al", "z-score": "inactive: 0.501"}
{"sequence": "CCGCGUCGGGCCACCACUGTT against 2310037P21Rik", "z-score": "inactive: -0.285"}
{"sequence": "GCUUAGUCUUAUGUAGCUCTT against AI662250", "z-score": "inactive: -0.256"}
{"sequence": "GGUGACUAGAAAAAUGGAUTT against Cd1d1", "z-score": "inactive: 0.878"}
{"sequence": "GGACAGUAUGGAAAAGUAUTT against Map3k4", "z-score": "inactive: -2.89"}
{"sequence": "GCACUCUCUACUCUAUUAATT against Ccbp2", "z-score": "inactive: -1.5"}
{"sequence": "GAGCGGGACUUUUGUCAUGTT against 6330580J24Rik", "z-score": "inactive: 0.474"}
{"sequence": "GGACUUUAUUGAAAAUCUGTT against Zfp365", "z-score": "inactive: 0.101"}
{"sequence": "GGUUCCAGAUGAGAUGAUATT against 5730410I19Rik", "z-score": "inactive: 0.592"}
